PubChem BioAssay AID1347075 (National Center for Advancing Translational Sciences (NCATS), 2019)
Values joined by “and” are separate entries in the source; they are usually repeats but may differ in a detail not shown here. Equal entries are not always repeated. In all, about 400,000 compounds went through this assay and about 5,500 (1.4%) were called active. This list was built around the results that the source calls inconclusive (neither active nor inactive); the mix of calls is not that of the screen. Calls come from the whole dose curve; as a rule, active = well fitted cell-killing curve with a large enough effect; inconclusive = small, poorly fitted or top-dose-only effect, or effect the other way; inactive = flat fitted curve, though single readings scatter. Potencies beside an inconclusive call are fits to weak or partial responses and may not hold up.

Experiment: qHTS assay for MDR1-selective chemotherapeutics: Primary screen using the parental adenocarcinoma cell KB-3-1; note: nearly all actives have a fitted effect of over 60% in size
Settings: KB-3-1 viability, CellTiter-Glo ATP luminescence, 72 h; activity change, negative = cytotoxic: at 46.1 µM (top of the series)
In short: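 Using CellTiter-Glo luminescence, growth of non-resistant KB-3-1 adenocarcinoma cells is assessed 72 h after pin-tool compound addition at 37 °C. Normalized responses across the concentration series yield fitted curves.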
% is set by controls: 0 for no effect and ±100 for the full control effect; potency is the fitted concentration of half-maximal effect.

| SMILES | Potency | activity change, negative = cytotoxic |
| --- | --- | --- |
| Clc1ccc(COC(Cn2ccnc2)c2ccc(Cl)cc2Cl)c(Cl)c1 (centres undefined) | inactive |  |
| CC1=CC2OC3CC4OC(=O)C=CC=CC(=O)OCCC(C)C(O)C(=O)OCC2(CC1O)C4(C)C31CO1 (centres undefined) | active: 0.146 µM |  |
| Cc1ccc(Cn2nnnc2CN2CCC(n3nnc4ccccc43)CC2)cc1 | inconclusive: 29.1 µM [cytotoxic, single point] |  |
| N#Cc1c(Br)n(C2OC(CO)C(O)C2O)c2ncnc(N)c12 (centres undefined) | inconclusive: 2.06 µM [cytotoxic, partial curve, poor fit] |  |
| COC(=O)C1=C(c2ccc(F)cc2OCc2ccccc2)C[C@@H]2CC[C@H]1N2C(=O)NCc1ccc([N+](=O)[O-])cc1 | inconclusive: 20.6 µM [cytotoxic, single point] |  |
| CCN(CC)P(=O)(NC(=O)C(Cl)(Cl)Cl)N(CC)CC.[Cl-].[Cl-].[Cl-].[Nd+3] | inconclusive: 29.1 µM [cytotoxic, single point] and inconclusive: 18.4 µM [cytotoxic, single point] |  |
| O=C(NCc1cccnc1)Nc1ccccc1Cl |  | inactive: 18.3% |
| N#CC(C#N)=NNc1ccc(-n2ccc(C(F)(F)F)n2)cc1 | inconclusive: 29.1 µM [cytotoxic, single point] |  |
| CCOC(=O)c1c(C)n(Cc2ccccc2)c2ccc(O)cc12 |  | inactive: -15.1% |
| CC(=O)Nc1ccccc1C(=O)OCc1ccc(C(=O)c2ccccc2)cc1 | inconclusive: 23.1 µM [cytotoxic, single point] |  |
| COC(=O)C1=C(c2ccc(OCc3ccccc3)cc2)C[C@@H]2CC[C@H]1N2C(=O)NCc1cccc(C(F)(F)F)c1 | inconclusive: 29.1 µM [cytotoxic, single point] |  |
| O=P(O)(O)CN1CCNCCN(CP(=O)(O)O)CCNCC1 | inconclusive: 29.1 µM [cytotoxic, single point] |  |
| CC(=O)C1C(N2CC2)CC2C3CC=C4CC(O)CCC4(C)C3CCC21C (centres undefined) | inconclusive: 29.1 µM [cytotoxic, single point] |  |
| CCCCn1c(O)c(C(C)=Nc2ccc(C(=O)O)cc2)c(=O)[nH]c1=O |  | inactive: 25.2% |
| O=C(Nc1cc(C(F)(F)F)cc(C(F)(F)F)c1)c1cccn(Cc2ccccc2Cl)c1=O | inconclusive: 29.1 µM [rising, single point] |  |
| ClCCN(CCCl)c1ccc(/C=C/c2sc3ccccc3[n+]2CCCCI)cc1 | inconclusive: 16.4 µM [cytotoxic, single point] |  |
| Clc1ccc(C[n+]2c(-c3ccccc3)cc(-c3ccccc3)cc2-c2ccccc2)cc1 | active: 10.3 µM |  |
| CN(C)c1ccc(C(=O)c2ccc(N(C)C)cc2)cc1 | inconclusive: 2.59 µM [cytotoxic, partial curve, poor fit] |  |
| CCOC(=O)[C@]12Cc3cc(C)ccc3[C@H]1N(Cc1ccccc1)C(=O)c1cc(F)c(F)cc12 | active: 3.26 µM |  |
| C=C[C@@H]1C[C@@]1(C)[C@@H](NP(=O)(c1ccccc1)c1ccccc1)c1ccccc1 | inconclusive: 16.4 µM [cytotoxic, single point] |  |
| CCOc1c(Cl)cc(CNCCc2c[nH]c3ccccc23)cc1OC | inconclusive: 29.1 µM [cytotoxic, single point] |  |
| C[C@H]1COc2cc(N3CCN(C)CC3)ccc2S(=O)(=O)N1 |  | inactive: -8.07% |

| SMILES | Potency | activity change, negative = cytotoxic |
| --- | --- | --- |
| CCNC(=O)N1Cc2ccccc2-n2nncc2C1 |  | inactive: -14.7% |
| CC/C(=N\NC(=O)Nc1ccccc1)c1c(O)n(Cc2ccccc2)c(=O)[nH]c1=O | inconclusive: 18.4 µM [rising, partial curve, poor fit] |  |
| C/C(CC(c1ccccc1)c1c(O)c2ccccc2oc1=O)=N\NC(N)=S (centres undefined) |  | inactive: -4.01% |
| Cc1cccc(-n2c(O)c(/C=N/NC(=O)c3ccncc3)c(=O)[nH]c2=O)c1 |  | inactive: -0.145% |
| COCCCn1c(-c2ccc(OC)cc2)cc(C(=O)NC2CCCCCCC2)c1C | inconclusive: 16.4 µM [cytotoxic, partial curve, poor fit] |  |
| CN(C)c1ccc(C=C2C(=O)NC(=O)NC2=O)cc1[N+](=O)[O-] | inconclusive: 29.1 µM [cytotoxic, single point] |  |
| CCOC(=O)Cn1cc(C(=O)c2ccccc2F)c2ccccc21 |  | inactive: 18.1% |
| CN1C(=O)/C(=C\N2CCc3ccccc32)C(=O)NC1=S |  | inactive: -7.83% |
| O=C1NC(=O)C2(CCN(c3ccccc3)CC2)C(=O)N1 |  | inactive: 2.49% |
| CCOC(=O)[C@]12Cc3cc(Cl)ccc3[C@H]1N(C1CCCCC1)C(=O)c1cc(OC)ccc12 | active: 1.03 µM |  |
| CCOc1cc2c(cc1OCC)-n1cccc1C(c1ccc(C(C)C)cc1)NC2 (centres undefined) | inconclusive: 29.1 µM [cytotoxic, single point] |  |
| Cc1[nH]c2c(C(F)(F)F)cccc2c1CCN | inconclusive: 29.1 µM [cytotoxic, single point] |  |
| CN(C(=O)CNC(=O)OCc1ccccc1)c1ccc(Br)cc1C(=O)c1ccccc1Cl | active: 2.31 µM |  |
| Cc1ccc2c(c1)N(C(=O)CCC(=O)N1CCC3(CC1)OCCO3)CCO2 |  | inactive: 3.23% |
| CCCCn1c(=O)c(C(=O)NCc2ccco2)c(O)c2ccccc21 | inconclusive: 16.4 µM [cytotoxic, single point] |  |
| CCCn1c(C)c(C(=O)c2cccc3ccccc23)c2ccccc21 | inconclusive: 29.1 µM [cytotoxic, single point] |  |
| COC(=O)C1=C(c2ccccc2OCc2ccccc2)C[C@@H]2CC[C@H]1N2C(=O)NCc1ccc(N(C)C)cc1 |  | inactive: -23.5% |
| CCC(=O)OC1CCC2C3CCC4CC(=O)C=CC4(C)C3CCC12C (centres undefined) | active: 10.3 µM |  |
| COC1CC2C=C(C)C=CC=CC(=O)NC(c3ccccc3)CC=CCCC(O)CC(=O)C2=C1O (centres undefined) | active: 5.8 µM |  |
| CC(=NCc1ccc2c(c1)OCO2)c1c(O)n(C)c(=O)n(C)c1=O | active: 8.2 µM |  |
| CCCCn1nnnc1C(CCc1ccccc1)N1CCC2(CC1)C(=O)NCN2c1ccccc1 (centres undefined) | inconclusive: 29.1 µM [cytotoxic, single point] |  |
| COc1cc([C@@H]2c3cc4c(cc3[C@H](OC(C)=O)[C@H]3COC(=O)[C@@H]23)OCO4)cc(OC)c1OC | active: 0.651 µM |  |

Rewritten tab-delimited: nine of the compounds above.
SMILES	Potency	activity change, negative = cytotoxic
CN(C)c1ccc(C=C2C(=O)NC(=O)NC2=O)cc1[N+](=O)[O-]	inconclusive: 29.1 µM [cytotoxic, single point]	
CCOC(=O)Cn1cc(C(=O)c2ccccc2F)c2ccccc21		inactive: 18.1%
CN1C(=O)/C(=C\N2CCc3ccccc32)C(=O)NC1=S		inactive: -7.83%
O=C1NC(=O)C2(CCN(c3ccccc3)CC2)C(=O)N1		inactive: 2.49%
CCOC(=O)[C@]12Cc3cc(Cl)ccc3[C@H]1N(C1CCCCC1)C(=O)c1cc(OC)ccc12	active: 1.03 µM	
CCOc1cc2c(cc1OCC)-n1cccc1C(c1ccc(C(C)C)cc1)NC2 (centres undefined)	inconclusive: 29.1 µM [cytotoxic, single point]	
Cc1[nH]c2c(C(F)(F)F)cccc2c1CCN	inconclusive: 29.1 µM [cytotoxic, single point]	
CN(C(=O)CNC(=O)OCc1ccccc1)c1ccc(Br)cc1C(=O)c1ccccc1Cl	active: 2.31 µM	
Cc1ccc2c(c1)N(C(=O)CCC(=O)N1CCC3(CC1)OCCO3)CCO2		inactive: 3.23%
